Results are given in words; binding and its absence hold for the method and conditions named. Some entries that bind do so weakly or less than the wild type.
Molecular target: nucleolin, 110 kDa, of UMR106-01 osteoblastic cultures (rat (endogenous in UMR106-01)) (UniProt P13383)
Assay: far-Western, overlay or dot blot; media, EDTA extracts and 8 M urea extracts of UMR106-01 cultures (+/-BGP, +/-AEBSF) resolved by SDS-PAGE, blotted onto PVDF, incubated with FAM-labeled peptide, fluorescence imager; bands identified by mass spectrometry and Edman sequencing; only the binder …

By UniProt entry, the sequences of proteins in these tests, tags left out.
UniProt P13383: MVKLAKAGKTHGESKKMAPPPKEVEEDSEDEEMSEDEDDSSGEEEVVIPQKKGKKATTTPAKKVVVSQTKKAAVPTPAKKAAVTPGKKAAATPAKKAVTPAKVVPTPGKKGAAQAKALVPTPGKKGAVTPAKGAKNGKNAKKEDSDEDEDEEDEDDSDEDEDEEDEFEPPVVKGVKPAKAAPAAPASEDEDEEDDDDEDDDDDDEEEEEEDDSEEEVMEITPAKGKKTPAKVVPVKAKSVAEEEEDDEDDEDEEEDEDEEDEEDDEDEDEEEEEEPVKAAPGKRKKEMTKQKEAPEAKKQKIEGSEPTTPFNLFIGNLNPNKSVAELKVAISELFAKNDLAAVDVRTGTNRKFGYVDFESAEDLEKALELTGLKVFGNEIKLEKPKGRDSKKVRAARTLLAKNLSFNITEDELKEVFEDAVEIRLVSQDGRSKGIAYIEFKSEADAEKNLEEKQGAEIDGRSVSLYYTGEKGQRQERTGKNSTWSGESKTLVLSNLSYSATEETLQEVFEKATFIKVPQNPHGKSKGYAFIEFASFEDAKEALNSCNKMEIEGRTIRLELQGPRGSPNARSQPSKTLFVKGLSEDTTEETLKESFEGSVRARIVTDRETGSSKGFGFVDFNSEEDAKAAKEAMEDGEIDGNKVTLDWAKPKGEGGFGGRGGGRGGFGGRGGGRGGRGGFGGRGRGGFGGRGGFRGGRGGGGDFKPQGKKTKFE

KKKSKMSTTPKSEKFASKKKKR (6-carboxyfluorescein (FAM) on the N-terminus) [FAM-labeled Col11a1 NTD “6b” exon-derived peptide 5]
binding: binds weakly

Source: article PMC8008188
